From patent US20130323766A1 come the findings set out here.

Chains of the proteins cited; added tags and fusions are not shown. Residues count along the entry.
UniProt P02701, residues 25-152: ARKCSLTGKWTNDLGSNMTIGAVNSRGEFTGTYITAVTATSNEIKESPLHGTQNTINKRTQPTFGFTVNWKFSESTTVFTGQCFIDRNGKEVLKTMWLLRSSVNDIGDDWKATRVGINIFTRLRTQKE

Results are given in words; binding and its absence hold for the method and conditions named. Some binding calls cover weakened binding; strength is not graded here.

Assay [1] has as its target T1, T. saccharolyticum transcarboxylase 1.3S subunit (or0947), biotinylated, expressed in E. coli strain M2557 (Thermoanaerobacterium saccharolyticum).
T1 sequence (chain, biotinylated (biotin-containing enzyme; residue not stated)): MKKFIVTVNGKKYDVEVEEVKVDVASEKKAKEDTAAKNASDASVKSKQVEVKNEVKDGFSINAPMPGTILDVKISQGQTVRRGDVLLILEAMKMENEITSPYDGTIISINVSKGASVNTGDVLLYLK
The assay can be described thus: batch affinity capture of M2557 lysate on monomeric avidin resin, biotin elution, Western blot. A general note: Immunoblotting shows a protein as a band on a membrane.

Assay [2] has the same target. The assay can be described thus: batch capture on streptavidin Dynabeads, elution by boiling, Western blot with streptavidin HRP, N-terminal sequencing of the band.

Regarding “Monomeric avidin resin (Pierce) (from UniProt P02701 25-152)”, the binding result in assay [1] is given as “binds”.

“Streptavidin (Streptavidin Dynabeads; streptavidin HRP) (from UniProt P22629 37-163)”: in assay [2], the binding result is recorded as “binds”.
